Assay results from the supplement of paper PMC7824004.
Some of the results follow. The data scatter; read single values as rough.

These compounds were tested on Candida albicans SN425 (assay: biofilm OD600 B-score; higher = more biofilm (less inhibition)). Settings: 10 µM; assay detail: High-throughput adherence inhibition optical density biofilm assay with C. albicans SN425 in RPMI-1640/MOPS pH 7.0, 384-well plates. ….
Method: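 High-throughput adherence inhibition optical density biofilm assay with C. albicans SN425 in RPMI-1640/MOPS pH 7.0, 384-well plates. Compound (10 µM) was present only during the 90 min adherence step, then washed out, and the biofilm grew 24 h without compound. Biofilm was read as OD600 after removing the media. Scores are the difference from the mean in standard deviations and the plate B-score.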

Row | SMILES | biofilm OD600 B-score
1 | O=C(O)c1cccnc1SCCc1ccccc1 | -3.38
2 | Cc1cc(C)nc(NC(=O)Cc2ccc(Cl)cc2)c1 | 0.162
3 | N#Cc1cc2c(nc1SCC(N)=O)CCCC2 | 0.069
4 | COc1ccc(OC)c(NC(=O)c2c(F)c(F)c(OC)c(F)c2F)c1 | 0.0431
5 | CCCN(CCO)CC1CCCCC1 | 2.16
6 | CCSc1sc(CC)cc1C(N)=O | -0.269
7 | COc1cc2c(C)[nH]c(=O)c(CC(=O)Nc3ccccc3)c2cc1OC | -0.211
8 | O=C(Nc1cccc(Cl)c1)N1CCCC1 | -4.21
9 | NC(=O)C1CCN(C(=O)CSc2ccc(Cl)cc2)CC1 | 5.03
10 | O=C(Nc1ccc(CN2CCCC2)cc1)c1cccs1 | 1.1
11 | Oc1cnn(-c2ccccc2)c1 | 0.671
12 | CCCc1cc2c(cc1N)OCO2 | -1.6
13 | CC1CN(C(=O)CSc2ccccc2)CC(C)O1 (stereo not given) | -0.72
14 | COc1ccc(-c2[nH]ncc2-c2ccc(F)cc2)c(O)c1 | 0.253
15 | Cc1cc(C)c(OCC(O)CNC(C)(C)C)c(C)c1 (stereo not given) | -0.84
16 | COc1cccc(NC(=O)c2ccc(C)o2)c1 | -2.64
17 | Cc1cc(C)c(OCCN(C)C)c(Cl)c1 | -1.49
18 | O=C(O)c1cccc(NS(=O)(=O)c2ccccc2)c1 | -1.02
19 | COc1ccc(NS(C)(=O)=O)cc1OC | 1.17
20 | CCN(CC)C(=O)c1sc2ccccc2c1Cl | 2.88

Reformatted in CSV form: entries from further up
Row,SMILES,biofilm OD600 B-score
12,CCCc1cc2c(cc1N)OCO2,-1.6
13,CC1CN(C(=O)CSc2ccccc2)CC(C)O1 (stereo not given),-0.72
14,COc1ccc(-c2[nH]ncc2-c2ccc(F)cc2)c(O)c1,0.253

More entries

Row | SMILES | biofilm OD600 B-score
21 | COc1cc(Cl)c(S(=O)(=O)NCCN2CCOCC2)cc1Cl | -0.296
22 | COCCNS(=O)(=O)c1cc(Cl)ccc1OC | -0.214
23 | CC(=O)Nc1cc(C(N)=O)cc(C(N)=O)c1 | -1.6
24 | CCCS(=O)(=O)N1CCN(c2ccccn2)CC1 | 1.93
25 | CCc1ccc(NC(=O)Cn2nnnc2C)cc1 | 0.0225
26 | Cc1ccc(C)n1-c1ccc(-n2cnnn2)cc1 | -2.55
27 | O=C(O)CCCNC(=O)c1ccccn1 | -0.714
28 | COc1cc(Cl)c(S(=O)(=O)n2nc(C)cc2C)cc1Cl | 0.567
29 | COc1ccccc1-n1c(SCC(=O)c2ccccc2)nc(O)cc1=O | -0.802
30 | Cc1cc(C(=O)Nc2cccc(O)c2)co1 | -0.0144
31 | Nc1ccc(S(=O)(=O)NCCc2ccccc2)cc1 | 2.49
32 | CCCN(CCO)CCCc1ccccc1 | -0.247
33 | CC(=O)Nc1nc(-c2c(F)c(F)c(F)c(F)c2F)cs1 | -0.595
34 | C=CCOc1ccc(CN2CCOCC2)cc1 | 0.572
35 | Cc1ccc(C)c(S(=O)(=O)Nc2ccccc2Cl)c1 | 2.74
36 | C/C=C(\C)CN1CCN(c2ccc(C)cc2)CC1 | -1.87
37 | COc1ccc(S(=O)(=O)NC2CCCCCC2)cc1OC | 0.678
38 | CCOc1ccc2nc(SCC(N)=O)sc2c1 | 0.0394
39 | Cc1ccc(C(=O)N2CCC(C(=O)NCc3cccnc3)CC2)cc1 | -1.61
40 | Cc1ccc(OCC(=O)Nc2ccccc2N2CCOCC2)cc1 | 0.536
